Our source for the binding values is publication PMC4654803.

By UniProt entry, the sequences of proteins in these tests, tags left out.
UniProt P09382: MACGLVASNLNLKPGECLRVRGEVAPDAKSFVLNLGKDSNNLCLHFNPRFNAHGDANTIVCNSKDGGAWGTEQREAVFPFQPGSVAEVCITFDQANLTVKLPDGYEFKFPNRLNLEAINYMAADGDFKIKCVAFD

This assay has as its target CA125 (human (endogenous in OVCAR-3)) (UniProt Q8WXI7). The assay is described as follows: co-IP; supernatant of whole cell lysates of galectin-1-pIRES2-ZsGreen1 transfected OVCAR-3 cells; immunoprecipitated with the primary antibodies or non-specific IgG as negative control; protein G magnetic beads, 4 °C overnight; western blot with anti-galectin-1 and anti-CA125 mouse monoclonal antibodies. (In general: In western blotting, separated proteins are transferred to a membrane and probed.)

No constants are given. Whether binding was seen depends on the method and setting. In cells and extracts the contact can be indirect. Some results given as binding are weak or reduced against the parent protein; the word gives no strength.

Regarding galectin-1 (from UniProt P09382 1-135), the binding result is recorded as “binds”.
